Laboratory results reported in US20220282268A1.
Changes are numbered by the printed parent chain. Results are given in words; binding and its absence hold for the method and conditions named. Some binding calls cover weakened binding; strength is not graded here.

The chains behind the UniProt entries cited, without tags or fusion partners. Where a name states a change or a piece, a line headed by the entry shows the natural chain unless it says otherwise.
UniProt P00873: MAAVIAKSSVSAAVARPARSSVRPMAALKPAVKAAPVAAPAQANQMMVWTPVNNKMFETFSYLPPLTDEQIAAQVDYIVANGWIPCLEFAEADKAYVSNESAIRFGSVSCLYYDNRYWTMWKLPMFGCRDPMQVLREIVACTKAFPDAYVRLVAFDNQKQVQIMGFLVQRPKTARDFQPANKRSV

B1: EPYC1 four repeat regions and C-terminus (4reps+C-ter/mEPYC1) (protein)
chain: VSPTRSVLPANWRQELESLRNGNGSSSAASSAPAPARSSSASWRDAAPASSAPARSSSASKKAVTPSRSALPSNWKQELESLRSSSPAPASSAPAPARSSSASWRDAAPASSAPARSSSSKKAVTPSRSALPSNWKQELESLRSSSPAPASSAPAPARSSSASWRDAAPASSAPARSSSASKKAVTPSRSALPSNWKQELESLRSNSPAPASSAPAPARSSSASWRDAPASSSSSSADKAGTNPWTGKSKPEIKRTALPADWRKGL
B2: EPYC1-α1,2,3: EPYC1 with the α-helices of the first, second and third repeat regions mutated to alanines (protein)
chain: MATISSMRVGAASRVVVSGRVKTVKVAARGSWRESSTATVQASRASSATNRVSPTRSVLPANWAAAAAAARNGNGSSSAASSAPAPARSSSASWRDAAPASSAPARSSSASKKAVTPSRSALPSNWAAAAAAARSSSPAPASSAPAPARSSSASWRDAAPASSAPARSSSSKKAVTPSRSALPSNWAAAAAAARSSSPAPASSAPAPARSSSASWRDAAPASSAPARSSSASKKAVTPSRSALPSNWKQELESLRSNSPAPASSAPAPARSSSASWRDAPASSSSSSADKAGTNPWTGKSKPEIKRTALPADWRKGL
B3: EPYC1-α1: EPYC1 with the α-helix of the first repeat region mutated to alanines (protein)
chain: MATISSMRVGAASRVVVSGRVKTVKVAARGSWRESSTATVQASRASSATNRVSPTRSVLPANWAAAAAAARNGNGSSSAASSAPAPARSSSASWRDAAPASSAPARSSSASKKAVTPSRSALPSNWKQELESLRSSSPAPASSAPAPARSSSASWRDAAPASSAPARSSSSKKAVTPSRSALPSNWKQELESLRSSSPAPASSAPAPARSSSASWRDAAPASSAPARSSSASKKAVTPSRSALPSNWKQELESLRSNSPAPASSAPAPARSSSASWRDAPASSSSSSADKAGTNPWTGKSKPEIKRTALPADWRKGL
B4: EPYC1-α1,2: EPYC1 with the α-helices of the first and second repeat regions mutated to alanines (protein)
chain: B2 chain with A187K, A188Q, A189E, A190L, A191E, A192S, A193L
B5: EPYC1-α4: EPYC1 with the α-helix of the fourth repeat region mutated to alanines (protein)
chain: MATISSMRVGAASRVVVSGRVKTVKVAARGSWRESSTATVQASRASSATNRVSPTRSVLPANWRQELESLRNGNGSSSAASSAPAPARSSSASWRDAAPASSAPARSSSASKKAVTPSRSALPSNWKQELESLRSSSPAPASSAPAPARSSSASWRDAAPASSAPARSSSSKKAVTPSRSALPSNWKQELESLRSSSPAPASSAPAPARSSSASWRDAAPASSAPARSSSASKKAVTPSRSALPSNWAAAAAAARSNSPAPASSAPAPARSSSASWRDAPASSSSSSADKAGTNPWTGKSKPEIKRTALPADWRKGL
B6: EPYC1-α3,4: EPYC1 with the α-helices of the third and fourth repeat regions mutated to alanines (protein)
chain: B5 chain with K187A, Q188A, E189A, L190A, E191A, S192A, L193A

Each binder was assayed against C. reinhardtii Rubisco small subunit 1 (S1Cr), mature (Chlamydomonas reinhardtii) (UniProt P00873) (assay: yeast two-hybrid (FIG. 4J)).

binding	Binder
binds	B1

These binders were tested against C. reinhardtii Rubisco small subunit 1 (S1Cr), mature (Chlamydomonas reinhardtii) (UniProt P00873) (assay: yeast two-hybrid (FIG. 4K)).

binding	Binder
binds	B2
binds	B3
binds	B4
binds	B5
binds	B6
